Test results: the supplement of paper PMC10849652
Some of the results follow. Residues, ends and D or L forms follow the SMILES beside them. *: point of attachment. Cbz = O=C(OCc1ccccc1)*

Sequences of proteins named here, by UniProt entry; tags and fusion partners are left off. A change or cut given only in a name is not applied to a line headed by its entry.
UniProt Q8NBI5: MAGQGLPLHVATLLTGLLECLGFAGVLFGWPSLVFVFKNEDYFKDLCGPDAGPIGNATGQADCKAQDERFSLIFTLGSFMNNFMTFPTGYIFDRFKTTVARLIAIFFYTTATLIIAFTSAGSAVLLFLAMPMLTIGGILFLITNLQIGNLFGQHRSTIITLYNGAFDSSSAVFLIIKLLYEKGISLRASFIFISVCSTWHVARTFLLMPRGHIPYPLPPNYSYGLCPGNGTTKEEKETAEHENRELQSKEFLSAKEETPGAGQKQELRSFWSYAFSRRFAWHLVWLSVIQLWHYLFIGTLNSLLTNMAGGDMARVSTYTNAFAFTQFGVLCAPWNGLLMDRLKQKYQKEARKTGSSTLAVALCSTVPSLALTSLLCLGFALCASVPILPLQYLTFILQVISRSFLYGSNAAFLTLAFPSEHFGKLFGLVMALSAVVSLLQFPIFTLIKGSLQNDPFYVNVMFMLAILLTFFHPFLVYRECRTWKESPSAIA
UniProt O75746: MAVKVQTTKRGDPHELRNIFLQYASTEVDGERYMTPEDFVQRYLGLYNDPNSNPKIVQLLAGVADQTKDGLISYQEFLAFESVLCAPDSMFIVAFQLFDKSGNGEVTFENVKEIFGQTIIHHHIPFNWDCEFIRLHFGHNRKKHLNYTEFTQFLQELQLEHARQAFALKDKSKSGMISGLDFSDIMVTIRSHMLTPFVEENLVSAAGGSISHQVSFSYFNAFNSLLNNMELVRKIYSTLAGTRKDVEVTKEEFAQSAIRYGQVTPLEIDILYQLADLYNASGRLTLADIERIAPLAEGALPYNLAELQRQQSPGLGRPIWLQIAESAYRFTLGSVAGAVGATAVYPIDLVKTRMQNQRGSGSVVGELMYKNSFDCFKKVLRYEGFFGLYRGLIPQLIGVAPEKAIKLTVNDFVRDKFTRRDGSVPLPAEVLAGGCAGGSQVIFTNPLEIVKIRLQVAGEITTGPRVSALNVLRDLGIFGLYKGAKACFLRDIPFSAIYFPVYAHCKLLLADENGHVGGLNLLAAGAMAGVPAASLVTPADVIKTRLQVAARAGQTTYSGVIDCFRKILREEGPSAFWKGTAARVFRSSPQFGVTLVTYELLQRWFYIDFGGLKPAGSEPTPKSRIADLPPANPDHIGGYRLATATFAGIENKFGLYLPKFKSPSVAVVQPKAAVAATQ
UniProt P53007, whole entry, looked up: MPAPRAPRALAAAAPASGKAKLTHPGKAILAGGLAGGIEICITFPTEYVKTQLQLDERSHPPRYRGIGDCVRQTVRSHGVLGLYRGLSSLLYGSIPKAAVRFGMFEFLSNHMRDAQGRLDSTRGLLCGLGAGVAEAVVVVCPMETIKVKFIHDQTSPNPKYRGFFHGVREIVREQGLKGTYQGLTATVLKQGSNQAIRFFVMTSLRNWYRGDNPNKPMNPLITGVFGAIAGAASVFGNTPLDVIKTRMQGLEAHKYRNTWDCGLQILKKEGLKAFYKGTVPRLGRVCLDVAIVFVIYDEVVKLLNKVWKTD
UniProt O43808: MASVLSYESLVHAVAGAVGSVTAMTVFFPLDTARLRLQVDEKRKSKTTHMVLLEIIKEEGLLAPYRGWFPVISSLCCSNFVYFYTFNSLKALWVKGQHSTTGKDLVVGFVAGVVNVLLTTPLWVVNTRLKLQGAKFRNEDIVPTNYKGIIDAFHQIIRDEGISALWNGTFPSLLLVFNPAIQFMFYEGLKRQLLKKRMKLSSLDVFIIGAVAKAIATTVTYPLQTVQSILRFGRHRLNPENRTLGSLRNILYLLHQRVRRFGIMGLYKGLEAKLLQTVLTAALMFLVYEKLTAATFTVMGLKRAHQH
UniProt P43007: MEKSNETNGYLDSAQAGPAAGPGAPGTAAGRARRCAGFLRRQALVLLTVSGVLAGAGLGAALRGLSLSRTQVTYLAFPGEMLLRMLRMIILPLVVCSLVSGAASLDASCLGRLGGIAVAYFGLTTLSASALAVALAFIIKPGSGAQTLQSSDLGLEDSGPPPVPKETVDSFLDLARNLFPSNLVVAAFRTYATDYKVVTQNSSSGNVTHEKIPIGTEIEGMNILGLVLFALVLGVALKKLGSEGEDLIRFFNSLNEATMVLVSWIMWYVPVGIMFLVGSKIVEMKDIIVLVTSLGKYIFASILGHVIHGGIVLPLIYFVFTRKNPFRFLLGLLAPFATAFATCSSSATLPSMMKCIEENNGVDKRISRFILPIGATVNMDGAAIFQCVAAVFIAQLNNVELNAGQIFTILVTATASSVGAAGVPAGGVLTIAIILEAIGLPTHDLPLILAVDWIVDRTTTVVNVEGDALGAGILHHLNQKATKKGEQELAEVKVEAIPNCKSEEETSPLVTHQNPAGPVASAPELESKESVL
UniProt Q9Y619: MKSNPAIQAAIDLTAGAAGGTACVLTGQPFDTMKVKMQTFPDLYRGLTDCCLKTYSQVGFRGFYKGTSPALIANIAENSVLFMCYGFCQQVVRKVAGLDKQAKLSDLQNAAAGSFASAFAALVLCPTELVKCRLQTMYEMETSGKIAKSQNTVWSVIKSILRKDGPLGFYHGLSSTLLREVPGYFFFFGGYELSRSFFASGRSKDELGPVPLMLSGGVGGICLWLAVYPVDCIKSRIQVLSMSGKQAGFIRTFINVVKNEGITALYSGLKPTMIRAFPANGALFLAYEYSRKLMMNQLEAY
UniProt P12235: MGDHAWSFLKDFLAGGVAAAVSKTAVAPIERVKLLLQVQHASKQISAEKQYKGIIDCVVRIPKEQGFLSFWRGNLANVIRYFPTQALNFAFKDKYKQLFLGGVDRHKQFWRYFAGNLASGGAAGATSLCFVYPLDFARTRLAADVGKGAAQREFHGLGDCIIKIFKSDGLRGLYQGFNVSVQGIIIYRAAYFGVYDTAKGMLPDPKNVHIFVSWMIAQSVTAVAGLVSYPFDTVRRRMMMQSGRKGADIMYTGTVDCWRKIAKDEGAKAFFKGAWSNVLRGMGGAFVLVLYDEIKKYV
UniProt Q9ULF5: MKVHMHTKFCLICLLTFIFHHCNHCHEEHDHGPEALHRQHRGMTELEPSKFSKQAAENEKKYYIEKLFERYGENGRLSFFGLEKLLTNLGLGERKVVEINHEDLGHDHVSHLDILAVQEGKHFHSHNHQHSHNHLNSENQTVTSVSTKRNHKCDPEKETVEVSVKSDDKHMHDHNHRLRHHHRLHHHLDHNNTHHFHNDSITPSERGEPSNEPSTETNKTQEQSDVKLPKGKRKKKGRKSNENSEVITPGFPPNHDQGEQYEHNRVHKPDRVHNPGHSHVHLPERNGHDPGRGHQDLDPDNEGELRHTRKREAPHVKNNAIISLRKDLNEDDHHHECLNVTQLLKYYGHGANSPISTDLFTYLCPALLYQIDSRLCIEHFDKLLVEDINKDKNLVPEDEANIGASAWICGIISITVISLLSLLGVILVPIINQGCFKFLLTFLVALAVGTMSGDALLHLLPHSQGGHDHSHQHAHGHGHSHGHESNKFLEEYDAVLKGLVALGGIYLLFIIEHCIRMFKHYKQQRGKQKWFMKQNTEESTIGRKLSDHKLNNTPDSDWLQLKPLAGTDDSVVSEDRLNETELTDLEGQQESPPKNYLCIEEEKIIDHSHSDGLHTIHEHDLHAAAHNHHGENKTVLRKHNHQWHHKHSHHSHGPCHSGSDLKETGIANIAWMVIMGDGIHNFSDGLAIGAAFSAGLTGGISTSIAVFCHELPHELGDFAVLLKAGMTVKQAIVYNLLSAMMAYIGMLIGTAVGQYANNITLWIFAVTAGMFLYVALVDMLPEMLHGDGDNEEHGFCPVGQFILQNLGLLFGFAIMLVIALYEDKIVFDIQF
UniProt Q02978: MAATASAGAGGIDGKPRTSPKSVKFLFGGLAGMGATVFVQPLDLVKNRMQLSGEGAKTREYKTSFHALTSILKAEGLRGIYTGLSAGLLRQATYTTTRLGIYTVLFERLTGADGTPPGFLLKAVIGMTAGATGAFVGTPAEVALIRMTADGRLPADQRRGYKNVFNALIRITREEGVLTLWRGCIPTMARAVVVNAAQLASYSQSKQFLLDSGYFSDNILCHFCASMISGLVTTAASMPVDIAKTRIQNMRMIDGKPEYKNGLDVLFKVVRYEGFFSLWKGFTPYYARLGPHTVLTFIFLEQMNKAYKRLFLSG
UniProt P12236: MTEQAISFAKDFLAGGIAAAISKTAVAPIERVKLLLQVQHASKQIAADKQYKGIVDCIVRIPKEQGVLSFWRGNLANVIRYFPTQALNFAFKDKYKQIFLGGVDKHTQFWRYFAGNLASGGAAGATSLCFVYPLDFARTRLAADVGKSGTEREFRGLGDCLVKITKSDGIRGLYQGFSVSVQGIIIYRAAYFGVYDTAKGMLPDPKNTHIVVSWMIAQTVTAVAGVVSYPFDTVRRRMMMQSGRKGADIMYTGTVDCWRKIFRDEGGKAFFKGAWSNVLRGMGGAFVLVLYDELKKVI
UniProt P08195: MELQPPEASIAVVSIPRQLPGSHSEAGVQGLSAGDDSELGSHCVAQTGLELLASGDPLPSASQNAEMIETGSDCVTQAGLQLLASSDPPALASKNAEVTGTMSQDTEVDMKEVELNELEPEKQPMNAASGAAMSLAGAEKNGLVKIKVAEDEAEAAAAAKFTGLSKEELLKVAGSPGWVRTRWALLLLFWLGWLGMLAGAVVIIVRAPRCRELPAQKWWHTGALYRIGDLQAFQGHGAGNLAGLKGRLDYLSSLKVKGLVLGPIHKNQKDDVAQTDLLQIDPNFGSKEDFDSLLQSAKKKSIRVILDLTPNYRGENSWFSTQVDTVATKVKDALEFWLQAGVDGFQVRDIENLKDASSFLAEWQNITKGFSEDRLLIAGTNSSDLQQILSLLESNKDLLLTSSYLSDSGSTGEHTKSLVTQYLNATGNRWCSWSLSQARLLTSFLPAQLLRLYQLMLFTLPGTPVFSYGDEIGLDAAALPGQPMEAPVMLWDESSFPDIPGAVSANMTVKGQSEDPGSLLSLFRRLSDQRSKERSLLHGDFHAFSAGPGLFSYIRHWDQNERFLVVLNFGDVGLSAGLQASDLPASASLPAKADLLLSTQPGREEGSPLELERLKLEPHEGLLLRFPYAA
UniProt Q5BKX6: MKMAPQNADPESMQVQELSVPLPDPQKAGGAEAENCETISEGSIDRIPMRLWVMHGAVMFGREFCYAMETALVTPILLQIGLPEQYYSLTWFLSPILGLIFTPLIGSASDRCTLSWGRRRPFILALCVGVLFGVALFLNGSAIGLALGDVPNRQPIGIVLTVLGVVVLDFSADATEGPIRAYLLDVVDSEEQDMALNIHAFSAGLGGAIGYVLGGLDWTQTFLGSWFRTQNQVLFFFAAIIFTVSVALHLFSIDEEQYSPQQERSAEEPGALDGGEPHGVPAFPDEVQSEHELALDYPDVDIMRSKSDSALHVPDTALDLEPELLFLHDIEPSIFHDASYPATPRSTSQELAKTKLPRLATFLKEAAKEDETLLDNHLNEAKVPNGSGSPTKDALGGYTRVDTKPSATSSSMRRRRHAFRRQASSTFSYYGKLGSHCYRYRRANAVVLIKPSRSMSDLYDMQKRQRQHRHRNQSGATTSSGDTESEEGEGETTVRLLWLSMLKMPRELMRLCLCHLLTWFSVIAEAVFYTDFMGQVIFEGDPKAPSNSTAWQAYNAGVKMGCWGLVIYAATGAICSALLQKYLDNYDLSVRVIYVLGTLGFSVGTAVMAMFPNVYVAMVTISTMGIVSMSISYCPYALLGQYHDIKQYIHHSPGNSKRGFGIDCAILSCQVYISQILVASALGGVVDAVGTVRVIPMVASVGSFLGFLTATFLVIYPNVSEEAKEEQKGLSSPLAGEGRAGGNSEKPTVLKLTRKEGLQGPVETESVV
UniProt P11169: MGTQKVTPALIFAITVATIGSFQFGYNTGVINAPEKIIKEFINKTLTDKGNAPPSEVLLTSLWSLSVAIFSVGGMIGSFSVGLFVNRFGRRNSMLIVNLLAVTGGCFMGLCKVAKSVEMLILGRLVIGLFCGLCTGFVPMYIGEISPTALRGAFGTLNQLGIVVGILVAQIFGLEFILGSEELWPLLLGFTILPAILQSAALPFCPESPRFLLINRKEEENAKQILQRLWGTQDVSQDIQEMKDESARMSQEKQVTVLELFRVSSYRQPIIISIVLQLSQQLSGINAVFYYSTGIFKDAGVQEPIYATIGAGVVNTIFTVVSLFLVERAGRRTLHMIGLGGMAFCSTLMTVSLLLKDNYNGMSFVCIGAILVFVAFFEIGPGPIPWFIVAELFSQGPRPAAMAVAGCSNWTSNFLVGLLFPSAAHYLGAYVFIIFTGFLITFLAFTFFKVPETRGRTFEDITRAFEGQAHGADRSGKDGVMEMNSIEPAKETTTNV

Key:
Assay in all cases: log2 fold change, soluble protein after heating vs DMSO (PISA); higher = thermal stabilisation; K562 cells, 10 uM, 30 min; active = over 0.2 and 3.5 SD of the protein, either way, in both replicates (recomputed)
erlotinib = compound: C#Cc1cccc(Nc2ncnc3cc(OCCOC)c(OCCOC)cc23)c1 [erlotinib]
How it was run: (§1)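 Values are thermal stability changes relative to control samples and are taken from duplicates. They are stated as log2 fold changes. Before quantification by TMTpro 16plex LC-MS/MS with equalised channel sums, K562 cells at 2×10^6 cells/mL were treated with 10 μM compound for 30 min, heated in aliquots for 3 min across 48°C-58°C, pooled, extracted in PBS with 0.5% NP-40 at 4°C, and centrifuged at 21,000xg for 90 min to give the soluble supernatant.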

[1] = compound: C/C(=N\NC(=O)C1=CC(=CC=C1)S(=O)(=O)N2CCOCC2)/C3=C(C=CC(=C3)Cl)O
How it was run: as §1

[2] = compound: C1=CC(=C(C=C1Cl)C2=NC3=NC=CN=C3C(=N2)NC4=CC=NC=C4)F
How it was run: as §1

[3] = compound: C1=CC(=CC=C1C2=NC3=C(N2)C=C(C=C3)C(=O)N)OC4=CC=C(C=C4)Cl
How it was run: as §1

[4] = compound: C1=CC2=C(C=CC(=C2)/C=C\3/C(=O)NC(=NCC4=CC=CS4)S3)N=C1
How it was run: as §1

[5] = compound: C1=CC2=NC=CN=C2C=C1/C=C/3\C(=O)NC(=O)S3
How it was run: as §1

[6] = compound: C1=CC=C(C=C1)C2=NC(=C(N2)C3=CC=NC=C3)C4=CC(=C(C=C4)Cl)O
How it was run: as §1

[7] = compound: C1=CC=C2C(=C1)C3=NNC4=CC=CC(=C43)C2=O
How it was run: as §1

[8] = compound: C1CCN(C1)C(=O)NC2=CC=CC(=C2)NC3=NC=C(C(=N3)NCCC4=CN=CN4)Br
How it was run: as §1

[9] = compound: C1CN(CCC1(CC2=CC=C(C=C2)Cl)N)C3=NC=NC4=C3C=CN4
How it was run: as §1

IRAK-1-4 Inhibitor I = compound: C1COCCN1CCN2C3=CC=CC=C3N=C2NC(=O)C4=CC(=CC=C4)[N+](=O)[O-] [IRAK-1-4 Inhibitor I]
How it was run: as §1

ibrutinib = compound: C=CC(=O)N1CCC[C@@H](n2nc(-c3ccc(Oc4ccccc4)cc3)c3c(N)ncnc32)C1 [ibrutinib]
How it was run: as §1

[10] = compound: CC(=O)c1cnc2ccc(-c3cc(Cl)c(O)c(Cl)c3)nc2c1N[C@H]1CC[C@H](CN(C)C)CC1
How it was run: as §1

ralimetinib = compound: CC(C)(C)Cn1c(N)nc2ccc(-c3[nH]c(C(C)(C)C)nc3-c3ccc(F)cc3)nc21 [ralimetinib]
How it was run: as §1

[11] = compound: CC(C)(O)CC(=O)NCCn1ccc2ncnc(Nc3ccc(Oc4cccc(C(F)(F)F)c4)c(Cl)c3)c21
How it was run: as §1

[12] = compound: CC(C)C1=C2N=C(C=C(N2N=C1)NCC3=CC=CC=C3)NCCCCCCN
How it was run: as §1

[13] = compound: CC(C)C[C@@H](C=O)NC(=O)[C@H](CC(C)C)NC(=O)[C@H](CC(C)C)NC(=O)OCc1ccccc1
How it was run: as §1

pinometostat = compound: CC(C)N(C[C@H]1O[C@@H](n2cnc3c(N)ncnc32)[C@H](O)[C@@H]1O)[C@H]1C[C@@H](CCc2nc3cc(C(C)(C)C)ccc3[nH]2)C1 [pinometostat]
How it was run: as §1

[14] = compound: CC1=C(C(CC(=O)N1)C2=CC=C(C=C2)C(F)(F)F)C(=O)NC3=C(C=C4C(=C3)C=NN4)F
How it was run: as §1

[15] = compound: CC1=C(C2=C(C=C1)C(=O)C3=CC=CC=C3N2CCCN)C
How it was run: as §1

Measured: log2 fold change

SLC43A3 isoform 2 (UniProt Q8NBI5)
inactive: erlotinib 0.002 | [1] -0.031 | [2] -0.027 | [3] 0 | [4] 0.043 | [5] 0.021 | [6] -0.042 | [7] -0.089 | [8] -0.027 | [9] 0.078 | IRAK-1-4 Inhibitor I -0.014 | ibrutinib 0.007 | [10] -0.056 | ralimetinib -0.108 | [11] 0.006 | [12] 0.183 | [13] -0.041 | pinometostat -0.023 | [14] 0.011 | [15] 0.015

SLC25A12 (UniProt O75746)
inactive: erlotinib 0.013 | [1] 0.008 | [2] 0.034 | [3] -0.002 | [4] -0.005 | [5] 0.027 | [6] 0 | [7] -0.016 | [8] 0.017 | [9] 0.037 | IRAK-1-4 Inhibitor I 0.03 | ibrutinib 0.02 | [10] 0.02 | ralimetinib -0.06 | [11] -0.003 | [12] 0.05 | [13] -0.004 | pinometostat -0.015 | [14] 0.012 | [15] -0.015

SLC25A1 (UniProt P53007)
inactive: erlotinib -0.016 | [1] 0.032 | [2] 0.043 | [3] -0.01 | [4] -0.079 | [5] 0.033 | [6] 0.021 | [7] -0.008 | [8] 0.032 | [9] 0.083 | IRAK-1-4 Inhibitor I 0.047 | ibrutinib 0.005 | [10] 0.049 | ralimetinib 0.009 | [11] 0 | [12] 0.091 | [13] -0.006 | pinometostat -0.017 | [14] 0.032 | [15] -0.004

SLC25A17 (UniProt O43808)
inactive: erlotinib -0.001 | [1] 0.031 | [2] 0.065 | [3] 0.027 | [4] -0.041 | [5] 0.072 | [6] 0.057 | [7] 0.02 | [8] 0.008 | [9] 0.138 | IRAK-1-4 Inhibitor I -0.015 | ibrutinib -0.015 | [10] 0.051 | ralimetinib -0.018 | [11] 0.008 | [12] -0.005 | [13] -0.058 | pinometostat -0.026 | [14] -0.053 | [15] -0.011

SLC40A1 (UniProt Q9NP59)
inactive: erlotinib -0.139 | [1] 0.072 | [2] 0.093 | [3] 0.039 | [4] -0.114 | [5] 0.132 | [6] 0.059 | [7] -0.15 | [8] -0.135 | [9] -0.165 | IRAK-1-4 Inhibitor I 0.025 | ibrutinib 0.187 | [10] -0.174 | ralimetinib -0.24 | [11] -0.101 | [12] 0.087 | [13] 0.24 | pinometostat 0.006 | [14] -0.173 | [15] 0.054

SLC1A4 (UniProt P43007)
inactive: erlotinib 0.017 | [1] 0.022 | [2] 0.099 | [3] 0.017 | [4] -0.034 | [5] 0.034 | [6] 0.111 | [7] -0.049 | [8] 0 | [9] 0.101 | IRAK-1-4 Inhibitor I 0.078 | ibrutinib 0.033 | [10] -0.011 | ralimetinib 0.045 | [11] -0.055 | [12] 0.146 | [13] -0.021 | pinometostat 0.009 | [14] 0.011 | [15] 0.021

SLC25A15 (UniProt Q9Y619)
inactive: erlotinib -0.022 | [1] 0.009 | [2] 0.037 | [3] 0.024 | [4] 0.039 | [5] 0.044 | [6] -0.006 | [7] -0.006 | [8] 0.045 | [9] 0.126 | IRAK-1-4 Inhibitor I 0.018 | ibrutinib 0.018 | [10] 0.009 | ralimetinib -0.001 | [11] 0.04 | [12] 0.083 | [13] 0.011 | pinometostat -0.011 | [14] -0.003 | [15] 0.033

SLC25A4 (UniProt P12235)
inactive: erlotinib 0.007 | [1] -0.016 | [2] 0.035 | [3] -0.009 | [4] -0.004 | [5] 0.042 | [6] 0.045 | [7] -0.076 | [8] -0.019 | [9] 0.021 | IRAK-1-4 Inhibitor I 0.032 | ibrutinib 0.068 | [10] 0.016 | ralimetinib -0.007 | [11] 0.009 | [12] 0.089 | [13] 0.004 | pinometostat -0.02 | [15] -0.013

SLC39A10 (UniProt Q9ULF5)
inactive: erlotinib 0.026 | [1] 0.003 | [2] 0 | [3] -0.011 | [4] 0.041 | [5] 0 | [6] -0.074 | [7] -0.037 | [8] -0.035 | [9] 0.025 | IRAK-1-4 Inhibitor I 0.031 | ibrutinib 0.057 | [10] -0.007 | ralimetinib 0.034 | [11] 0.025 | [12] 0.187 | [13] 0.022 | pinometostat -0.007 | [14] -0.012 | [15] 0.027

SLC35B2 (UniProt Q8TB61)
inactive: erlotinib 0.033 | [1] 0.013 | [2] 0.105 | [3] -0.007 | [4] 0.026 | [5] 0.028 | [6] 0.043 | [7] -0.054 | [8] 0.043 | [9] 0.024 | IRAK-1-4 Inhibitor I 0.005 | ibrutinib 0.008 | [10] -0.005 | ralimetinib 0.008 | [11] -0.02 | [12] -0.024 | [13] -0.055 | pinometostat 0.023 | [14] 0.045 | [15] 0.027

SLC25A11 (UniProt Q02978)
inactive: erlotinib -0.007 | [1] -0.012 | [2] 0.034 | [3] 0.017 | [4] -0.012 | [5] 0.039 | [6] -0.009 | [7] -0.042 | [8] 0.002 | [9] 0.053 | IRAK-1-4 Inhibitor I 0.019 | ibrutinib 0.032 | [10] 0.029 | ralimetinib -0.053 | [11] 0.027 | [12] 0.05 | [13] -0.027 | pinometostat -0.006 | [14] -0.011 | [15] -0.016

SLC25A6 (UniProt P12236)
inactive: erlotinib -0.023 | [1] 0.018 | [2] -0.025 | [3] 0.014 | [4] 0.028 | [5] 0.016 | [6] -0.042 | [7] -0.003 | [8] -0.004 | [9] 0.015 | IRAK-1-4 Inhibitor I 0.028 | ibrutinib 0 | [10] 0.023 | ralimetinib -0.059 | [11] 0.02 | [12] 0.07 | [13] -0.031 | pinometostat -0.018 | [14] 0.026 | [15] 0.039

SLC3A2 isoform 3 (UniProt P08195)
inactive: erlotinib 0.031 | [1] 0.046 | [2] 0.032 | [3] 0 | [4] -0.035 | [5] -0.01 | [6] 0.03 | [7] -0.044 | [8] -0.064 | [9] 0.074 | IRAK-1-4 Inhibitor I 0.067 | ibrutinib 0.045 | [10] -0.021 | ralimetinib 0.001 | [11] 0 | [12] 0.169 | [13] 0.013 | pinometostat -0.054 | [14] -0.024 | [15] 0.033

SLC45A4 isoform 3 (UniProt Q5BKX6)
inactive: erlotinib 0.021 | [1] 0 | [2] -0.12 | [3] -0.007 | [4] -0.011 | [5] 0.065 | [6] -0.151 | [7] -0.036 | [8] -0.086 | [9] 0.043 | IRAK-1-4 Inhibitor I 0.058 | ibrutinib 0.041 | [10] 0.006 | ralimetinib 0.097 | [11] 0.015 | [12] -0.026 | [13] 0.285 | pinometostat -0.107 | [14] -0.017 | [15] 0.049

SLC2A3 (UniProt P11169)
inactive: erlotinib 0.011 | [1] 0.071 | [2] 0.062 | [3] -0.008 | [4] -0.061 | [5] 0.021 | [6] -0.067 | [7] -0.021 | [8] -0.024 | [9] 0.056 | IRAK-1-4 Inhibitor I -0.012 | ibrutinib 0.034 | [10] -0.04 | ralimetinib -0.092 | [11] -0.023 | [12] 0.113 | [13] -0.015 | pinometostat -0.028 | [14] 0.027 | [15] -0.011
